Experimental data from article doi:10.1101/2023.08.04.551977 (bioRxiv, 2023).
Construct, isoform or probe ends are uncertain for at least one entry. For part of these data: Protein sequences can lack the tags named with them.

Tests used:
[1] = test system: T1, AR DBD-alt hinge (AR-v7 DBD); assay: BLI
T1 sequence (looked up, limits assumed): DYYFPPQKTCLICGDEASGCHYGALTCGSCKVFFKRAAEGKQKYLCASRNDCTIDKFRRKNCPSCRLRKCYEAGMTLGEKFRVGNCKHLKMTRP

AR DBD-hinge = target: T2, AR DBD-hinge (UniProt P10275); assay: BLI; details: residues 551-671
T2 sequence (looked up): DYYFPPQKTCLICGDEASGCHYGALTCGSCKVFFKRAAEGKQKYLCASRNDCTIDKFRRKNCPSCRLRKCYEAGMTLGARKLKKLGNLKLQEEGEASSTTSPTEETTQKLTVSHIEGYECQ

AR MBR-DBD-LBD = assay: mass measurement; details: 56 kDa without ARE, 154 kDa with ARE (dimer)

AGCTTACATAGTACGTGATGTTCTCAAGGTCGA (double strand) [C3(1)-ARE+flanking]
Kd [1]: 710 nM
Kd (AR DBD-hinge): 200 nM
binding result (AR MBR-DBD-LBD): binds
